Common to all, as to assay: pull-down; GST or GST fusion proteins cross‐linked to glutathione‐agarose beads (DMP), incubated with total lysates of HEK293T cells expressing Flag‐E47; Western blot with anti‐Flag; only the target purified
The target of assay [1] is T1, GST‐STRA8 fusion protein (mouse) (UniProt P70278).
T1 sequence: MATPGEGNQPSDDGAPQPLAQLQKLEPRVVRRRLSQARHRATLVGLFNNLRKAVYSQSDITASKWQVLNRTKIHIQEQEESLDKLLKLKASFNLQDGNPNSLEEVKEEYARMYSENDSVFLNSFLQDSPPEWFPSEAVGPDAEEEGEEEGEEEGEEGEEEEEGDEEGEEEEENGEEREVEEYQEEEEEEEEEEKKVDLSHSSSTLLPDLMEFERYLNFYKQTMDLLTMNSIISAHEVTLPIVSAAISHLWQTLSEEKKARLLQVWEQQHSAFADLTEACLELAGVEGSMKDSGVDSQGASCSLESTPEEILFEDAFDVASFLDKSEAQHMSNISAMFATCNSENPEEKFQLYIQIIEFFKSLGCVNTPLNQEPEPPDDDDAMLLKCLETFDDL

Amino acid sequences for entries named in this document (tags omitted).
UniProt P10085: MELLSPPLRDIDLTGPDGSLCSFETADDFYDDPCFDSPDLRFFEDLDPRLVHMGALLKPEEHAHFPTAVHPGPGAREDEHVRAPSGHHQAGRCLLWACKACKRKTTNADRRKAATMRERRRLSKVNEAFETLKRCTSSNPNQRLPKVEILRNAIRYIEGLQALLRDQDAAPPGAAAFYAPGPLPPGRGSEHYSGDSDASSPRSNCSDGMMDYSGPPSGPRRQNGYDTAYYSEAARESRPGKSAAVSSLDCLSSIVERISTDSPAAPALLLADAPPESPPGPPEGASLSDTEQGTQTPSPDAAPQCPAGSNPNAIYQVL

The target of another assay is T2, GST‐ΔHLH‐STRA8 (mouse) (UniProt P70278).
T2 sequence: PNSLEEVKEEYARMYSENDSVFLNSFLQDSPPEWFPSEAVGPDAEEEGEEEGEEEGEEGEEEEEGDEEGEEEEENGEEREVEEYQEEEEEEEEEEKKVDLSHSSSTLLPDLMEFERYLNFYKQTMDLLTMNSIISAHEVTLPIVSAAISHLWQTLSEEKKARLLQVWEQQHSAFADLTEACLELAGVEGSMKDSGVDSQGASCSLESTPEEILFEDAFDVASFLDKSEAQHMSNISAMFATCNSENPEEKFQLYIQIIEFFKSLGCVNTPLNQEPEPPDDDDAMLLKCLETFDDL

Assay [2] concerns the target T3, GST‐HLH‐only‐STRA8 (mouse) (UniProt P70278).
T3 sequence: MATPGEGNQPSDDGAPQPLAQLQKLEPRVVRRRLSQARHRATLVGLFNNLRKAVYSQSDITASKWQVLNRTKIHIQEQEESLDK

A further assay deals with GST‐MYOD fusion protein (UniProt P10085).

Results are given in words; binding and its absence hold for the method and conditions named. Binding seen in cells or lysates may run through a third protein. For some of these results: Binding calls can cover weak binding; strength is not graded here. For some of these results: Tags and fused reporters may be left off the sequences shown.

Turning to Flag‐E47 (from UniProt P15806-2), the binding result in assay [1] is recorded as “binds”; with GST‐ΔHLH‐STRA8 (mouse) it was “no binding”; in assay [2], “binds”; with GST‐MYOD fusion protein it was “binds”.

Values taken from publication PMC7810945.
